Measured values reported in PMC6208443, “Arabidopsis AGDP1 links H3K9me2 to DNA methylation in heterochromatin” (Nature Communications, 2018).
No constants are given. Whether binding was seen depends on the method and setting. Binding seen in cells or lysates may run through a third protein. A yes stands for co-enrichment or nearness to the bait. Other partners may have been found. No binding means not detected with the bait. Sequences can lack the tags named with a protein.

Amino acid sequences for entries named in this document (tags omitted).
UniProt Q9XFH4: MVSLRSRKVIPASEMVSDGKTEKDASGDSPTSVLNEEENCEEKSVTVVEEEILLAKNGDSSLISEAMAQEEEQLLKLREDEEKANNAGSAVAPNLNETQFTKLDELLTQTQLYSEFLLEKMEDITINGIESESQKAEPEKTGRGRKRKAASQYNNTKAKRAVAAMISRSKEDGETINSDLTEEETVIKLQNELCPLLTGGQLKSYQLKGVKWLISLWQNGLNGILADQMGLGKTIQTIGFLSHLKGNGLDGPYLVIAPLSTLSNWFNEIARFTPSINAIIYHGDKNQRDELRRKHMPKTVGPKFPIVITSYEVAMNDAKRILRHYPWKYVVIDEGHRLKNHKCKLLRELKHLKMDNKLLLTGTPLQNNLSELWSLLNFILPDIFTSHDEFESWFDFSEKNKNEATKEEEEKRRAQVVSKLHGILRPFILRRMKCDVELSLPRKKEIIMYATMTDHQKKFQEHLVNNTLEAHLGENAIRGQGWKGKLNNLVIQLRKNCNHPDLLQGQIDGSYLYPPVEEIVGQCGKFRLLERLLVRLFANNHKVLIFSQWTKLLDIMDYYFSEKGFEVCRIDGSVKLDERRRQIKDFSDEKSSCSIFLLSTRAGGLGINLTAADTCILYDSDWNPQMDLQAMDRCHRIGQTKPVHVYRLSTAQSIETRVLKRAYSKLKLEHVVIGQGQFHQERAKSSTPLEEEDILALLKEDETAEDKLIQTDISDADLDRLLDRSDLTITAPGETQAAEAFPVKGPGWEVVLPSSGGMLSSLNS

Target: T1, Flag-AGDP1 (Arabidopsis thaliana) (UniProt Q500V5)
T1 sequence: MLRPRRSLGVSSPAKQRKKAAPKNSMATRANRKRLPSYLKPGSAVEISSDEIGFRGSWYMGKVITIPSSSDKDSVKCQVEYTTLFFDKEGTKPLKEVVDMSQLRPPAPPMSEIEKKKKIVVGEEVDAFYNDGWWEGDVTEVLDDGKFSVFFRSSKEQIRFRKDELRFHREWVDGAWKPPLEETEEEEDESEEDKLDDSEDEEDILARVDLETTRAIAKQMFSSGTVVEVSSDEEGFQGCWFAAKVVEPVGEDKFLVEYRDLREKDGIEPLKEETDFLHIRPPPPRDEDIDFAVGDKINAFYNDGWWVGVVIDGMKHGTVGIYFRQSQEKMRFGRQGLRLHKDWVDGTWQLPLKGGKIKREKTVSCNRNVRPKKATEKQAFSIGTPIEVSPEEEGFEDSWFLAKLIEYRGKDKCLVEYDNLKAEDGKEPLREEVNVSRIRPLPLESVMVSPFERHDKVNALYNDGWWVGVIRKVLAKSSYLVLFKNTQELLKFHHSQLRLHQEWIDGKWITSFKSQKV
Assay: affinity purification with mass spectrometry; immunoprecipitation of Flag-AGDP1 from pAGDP1-Flag-AGDP1 transgenic plants followed by mass spectrometry (IP-MS), four replicates

- binding: no binding
Substance: DDM1 (from UniProt Q9XFH4 1-764)
